Measured values taken from US6713603B2 (Isis Innovation Limited, priority 1996, dated 2004).

Legend:
[1] = general procedure: Fmoc solid-phase peptide synthesis; Novasyn-TGR (dimethoxybenzhydrylamine); dipeptide pentafluorophenyl esters with HOBt; conditions: whole synthesis, scale 5 μmol
[2] = Fmoc solid-phase peptide synthesis; Novasyn-TGR (dimethoxybenzhydrylamine); dipeptide pentafluorophenyl esters with HOBt; conditions: whole synthesis, scale of the general procedure 5 μmol

Substance | isolated yield [1] [%] | difficulty met [2]
H-[D-Ser-D-Pro(cis-4-T)]10LysNH2 | 16 | 
H-[Gly-D-Pro(trans-4-T)]10-Lys-NH2 |  | A possible reason for the low yield in the case of HBTU activation
H-[L-Ser-D-Pro(cis-4-T)]10LysNH2 | 28 | 
